The list shows a part of the results. Residues, ends and D or L forms follow the SMILES beside them. *: point of attachment. Cbz = O=C(OCc1ccccc1)*

Sequences of proteins named here, by UniProt entry; tags and fusion partners are left off. A change or cut given only in a name is not applied to a line headed by its entry.
UniProt O75822, whole entry, looked up: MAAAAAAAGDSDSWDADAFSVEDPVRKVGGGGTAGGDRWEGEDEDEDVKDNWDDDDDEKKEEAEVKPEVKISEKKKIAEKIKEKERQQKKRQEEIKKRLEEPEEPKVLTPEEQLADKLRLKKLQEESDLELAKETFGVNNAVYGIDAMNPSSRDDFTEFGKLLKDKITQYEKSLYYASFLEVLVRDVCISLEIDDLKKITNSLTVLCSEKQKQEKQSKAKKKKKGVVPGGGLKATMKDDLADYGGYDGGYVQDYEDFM
UniProt Q8N6R0: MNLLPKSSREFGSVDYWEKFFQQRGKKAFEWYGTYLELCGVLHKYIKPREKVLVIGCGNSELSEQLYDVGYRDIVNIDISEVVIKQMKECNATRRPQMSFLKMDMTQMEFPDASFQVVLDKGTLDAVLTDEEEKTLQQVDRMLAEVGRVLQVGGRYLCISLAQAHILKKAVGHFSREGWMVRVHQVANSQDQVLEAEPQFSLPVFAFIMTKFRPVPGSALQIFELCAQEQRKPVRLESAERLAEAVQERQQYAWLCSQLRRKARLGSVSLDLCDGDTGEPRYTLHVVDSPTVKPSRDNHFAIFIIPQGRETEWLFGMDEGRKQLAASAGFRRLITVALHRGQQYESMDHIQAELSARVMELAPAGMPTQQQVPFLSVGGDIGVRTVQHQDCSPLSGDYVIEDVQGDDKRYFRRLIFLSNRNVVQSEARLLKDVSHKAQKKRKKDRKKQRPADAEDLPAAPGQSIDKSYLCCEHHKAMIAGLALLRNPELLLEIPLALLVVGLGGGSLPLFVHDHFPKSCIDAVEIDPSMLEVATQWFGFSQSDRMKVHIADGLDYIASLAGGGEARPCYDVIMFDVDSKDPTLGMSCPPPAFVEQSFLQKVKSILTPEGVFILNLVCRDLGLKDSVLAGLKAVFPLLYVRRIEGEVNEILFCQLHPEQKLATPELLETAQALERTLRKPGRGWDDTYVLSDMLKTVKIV
UniProt Q9BQI3, whole entry, looked up: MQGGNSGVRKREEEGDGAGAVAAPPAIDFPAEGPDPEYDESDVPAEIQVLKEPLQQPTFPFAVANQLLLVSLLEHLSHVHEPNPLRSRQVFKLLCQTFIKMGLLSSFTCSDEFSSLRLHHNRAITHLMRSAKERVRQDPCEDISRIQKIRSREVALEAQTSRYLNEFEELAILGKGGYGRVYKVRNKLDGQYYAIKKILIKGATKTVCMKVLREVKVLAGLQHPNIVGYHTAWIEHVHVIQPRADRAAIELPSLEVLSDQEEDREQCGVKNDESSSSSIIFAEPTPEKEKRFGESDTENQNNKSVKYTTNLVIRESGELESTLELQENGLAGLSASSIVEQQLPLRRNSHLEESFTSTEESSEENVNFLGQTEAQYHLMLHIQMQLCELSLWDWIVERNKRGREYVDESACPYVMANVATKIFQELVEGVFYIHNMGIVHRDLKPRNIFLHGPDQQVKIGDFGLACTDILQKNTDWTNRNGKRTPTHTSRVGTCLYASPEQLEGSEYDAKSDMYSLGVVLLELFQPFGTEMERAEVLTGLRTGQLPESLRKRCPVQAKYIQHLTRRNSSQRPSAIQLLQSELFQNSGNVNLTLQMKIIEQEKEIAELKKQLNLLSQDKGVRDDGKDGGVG
UniProt O60739, whole entry, looked up: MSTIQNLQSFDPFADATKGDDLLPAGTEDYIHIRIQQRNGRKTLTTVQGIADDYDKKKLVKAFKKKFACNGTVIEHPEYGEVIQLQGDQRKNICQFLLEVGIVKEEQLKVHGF
UniProt Q5NDL2: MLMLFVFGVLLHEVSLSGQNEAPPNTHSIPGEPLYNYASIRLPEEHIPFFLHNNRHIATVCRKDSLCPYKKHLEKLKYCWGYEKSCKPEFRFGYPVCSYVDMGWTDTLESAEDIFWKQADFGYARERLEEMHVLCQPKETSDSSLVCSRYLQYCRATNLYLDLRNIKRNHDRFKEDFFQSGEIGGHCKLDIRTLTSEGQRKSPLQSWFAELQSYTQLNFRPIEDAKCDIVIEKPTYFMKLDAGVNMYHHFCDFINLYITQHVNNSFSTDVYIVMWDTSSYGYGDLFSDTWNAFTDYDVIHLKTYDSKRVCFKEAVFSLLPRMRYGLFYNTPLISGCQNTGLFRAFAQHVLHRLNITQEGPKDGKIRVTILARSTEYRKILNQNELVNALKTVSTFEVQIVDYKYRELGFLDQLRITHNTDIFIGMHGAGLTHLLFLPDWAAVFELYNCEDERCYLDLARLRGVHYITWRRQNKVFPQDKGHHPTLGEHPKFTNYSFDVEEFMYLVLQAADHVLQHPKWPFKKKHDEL
UniProt P19525: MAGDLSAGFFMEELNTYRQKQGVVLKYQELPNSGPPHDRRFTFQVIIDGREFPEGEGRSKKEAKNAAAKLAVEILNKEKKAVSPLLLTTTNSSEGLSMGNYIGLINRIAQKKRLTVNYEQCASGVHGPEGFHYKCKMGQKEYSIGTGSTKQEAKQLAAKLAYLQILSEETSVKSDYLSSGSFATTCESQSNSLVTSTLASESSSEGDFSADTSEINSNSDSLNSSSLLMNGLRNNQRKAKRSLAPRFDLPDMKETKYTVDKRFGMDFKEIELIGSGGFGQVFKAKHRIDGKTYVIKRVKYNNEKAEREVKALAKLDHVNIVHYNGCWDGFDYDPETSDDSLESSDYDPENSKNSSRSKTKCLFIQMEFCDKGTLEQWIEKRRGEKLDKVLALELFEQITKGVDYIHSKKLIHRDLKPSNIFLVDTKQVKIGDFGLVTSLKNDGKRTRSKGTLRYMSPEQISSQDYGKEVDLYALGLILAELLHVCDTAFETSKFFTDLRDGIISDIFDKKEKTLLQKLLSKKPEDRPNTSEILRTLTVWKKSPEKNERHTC
UniProt Q9BW60: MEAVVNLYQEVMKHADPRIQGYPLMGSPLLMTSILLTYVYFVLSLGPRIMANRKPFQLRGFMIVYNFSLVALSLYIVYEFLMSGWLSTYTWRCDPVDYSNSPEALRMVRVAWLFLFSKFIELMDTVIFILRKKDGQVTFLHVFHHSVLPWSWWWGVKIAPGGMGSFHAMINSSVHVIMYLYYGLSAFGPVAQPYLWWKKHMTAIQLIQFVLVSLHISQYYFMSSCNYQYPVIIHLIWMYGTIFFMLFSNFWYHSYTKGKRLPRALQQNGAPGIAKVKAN
UniProt P41091, whole entry, looked up: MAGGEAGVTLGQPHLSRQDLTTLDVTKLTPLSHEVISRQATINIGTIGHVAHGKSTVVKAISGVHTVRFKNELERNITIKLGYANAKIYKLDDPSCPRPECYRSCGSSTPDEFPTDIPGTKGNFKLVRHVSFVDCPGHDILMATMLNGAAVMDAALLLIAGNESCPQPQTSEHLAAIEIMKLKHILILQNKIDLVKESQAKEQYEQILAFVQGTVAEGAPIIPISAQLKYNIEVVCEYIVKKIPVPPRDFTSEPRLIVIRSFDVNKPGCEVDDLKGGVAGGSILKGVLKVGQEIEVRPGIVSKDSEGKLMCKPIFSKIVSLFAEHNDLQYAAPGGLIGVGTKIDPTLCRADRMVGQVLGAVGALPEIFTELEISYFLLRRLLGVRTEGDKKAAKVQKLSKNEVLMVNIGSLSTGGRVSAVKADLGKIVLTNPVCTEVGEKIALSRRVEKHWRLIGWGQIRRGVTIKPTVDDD
UniProt P18146, whole entry, looked up: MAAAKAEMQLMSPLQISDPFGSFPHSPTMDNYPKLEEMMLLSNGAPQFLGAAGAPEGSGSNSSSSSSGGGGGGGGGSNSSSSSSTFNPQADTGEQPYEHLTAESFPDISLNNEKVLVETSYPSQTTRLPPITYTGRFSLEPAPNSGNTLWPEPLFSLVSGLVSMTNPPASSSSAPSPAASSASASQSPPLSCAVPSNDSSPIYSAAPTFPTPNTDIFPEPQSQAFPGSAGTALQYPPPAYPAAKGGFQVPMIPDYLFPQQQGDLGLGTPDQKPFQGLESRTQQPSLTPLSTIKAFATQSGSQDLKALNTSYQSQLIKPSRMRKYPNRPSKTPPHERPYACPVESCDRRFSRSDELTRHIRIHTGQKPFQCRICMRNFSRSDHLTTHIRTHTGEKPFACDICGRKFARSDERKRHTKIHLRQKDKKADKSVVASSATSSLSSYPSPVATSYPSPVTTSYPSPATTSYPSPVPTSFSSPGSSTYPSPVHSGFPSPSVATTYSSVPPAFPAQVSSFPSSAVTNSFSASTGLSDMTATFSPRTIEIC
UniProt P26641, whole entry, looked up: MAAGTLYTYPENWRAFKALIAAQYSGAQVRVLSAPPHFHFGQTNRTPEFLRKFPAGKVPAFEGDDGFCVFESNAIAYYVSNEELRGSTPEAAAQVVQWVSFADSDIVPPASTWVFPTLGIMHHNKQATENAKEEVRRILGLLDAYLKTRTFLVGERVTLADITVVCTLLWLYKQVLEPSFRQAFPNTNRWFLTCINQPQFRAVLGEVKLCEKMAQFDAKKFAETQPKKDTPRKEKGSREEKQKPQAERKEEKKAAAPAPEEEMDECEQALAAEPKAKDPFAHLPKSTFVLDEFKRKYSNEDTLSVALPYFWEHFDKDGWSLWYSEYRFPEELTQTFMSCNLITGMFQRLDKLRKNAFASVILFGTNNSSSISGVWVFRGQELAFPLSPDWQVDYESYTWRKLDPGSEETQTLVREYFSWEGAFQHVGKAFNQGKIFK
UniProt O75071: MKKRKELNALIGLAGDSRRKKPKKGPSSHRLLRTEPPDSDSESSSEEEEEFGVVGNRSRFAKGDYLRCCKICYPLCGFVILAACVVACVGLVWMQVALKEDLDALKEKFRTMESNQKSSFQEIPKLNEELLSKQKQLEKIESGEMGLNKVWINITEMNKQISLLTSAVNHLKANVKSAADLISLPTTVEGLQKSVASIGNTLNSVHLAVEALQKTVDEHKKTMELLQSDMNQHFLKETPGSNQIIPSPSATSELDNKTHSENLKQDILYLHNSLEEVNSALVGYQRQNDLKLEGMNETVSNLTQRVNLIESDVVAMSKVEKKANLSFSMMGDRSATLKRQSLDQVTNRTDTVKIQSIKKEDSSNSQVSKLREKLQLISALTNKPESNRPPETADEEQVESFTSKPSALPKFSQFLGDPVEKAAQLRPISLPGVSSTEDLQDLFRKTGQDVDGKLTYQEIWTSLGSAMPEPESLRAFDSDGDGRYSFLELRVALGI
UniProt O75354: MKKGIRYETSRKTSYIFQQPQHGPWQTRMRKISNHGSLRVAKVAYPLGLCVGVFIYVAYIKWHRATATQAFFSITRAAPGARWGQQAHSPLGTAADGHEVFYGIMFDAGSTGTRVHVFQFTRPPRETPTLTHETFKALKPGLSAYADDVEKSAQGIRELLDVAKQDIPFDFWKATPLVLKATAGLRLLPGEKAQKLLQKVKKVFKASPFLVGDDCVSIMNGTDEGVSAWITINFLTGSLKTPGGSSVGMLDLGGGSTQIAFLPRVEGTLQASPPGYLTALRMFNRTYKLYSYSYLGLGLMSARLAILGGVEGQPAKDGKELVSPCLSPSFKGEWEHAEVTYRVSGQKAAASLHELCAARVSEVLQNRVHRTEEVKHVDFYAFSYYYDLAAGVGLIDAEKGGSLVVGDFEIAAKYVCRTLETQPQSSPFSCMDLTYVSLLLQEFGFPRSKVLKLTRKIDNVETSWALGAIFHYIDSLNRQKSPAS
UniProt O14638, whole entry, looked up: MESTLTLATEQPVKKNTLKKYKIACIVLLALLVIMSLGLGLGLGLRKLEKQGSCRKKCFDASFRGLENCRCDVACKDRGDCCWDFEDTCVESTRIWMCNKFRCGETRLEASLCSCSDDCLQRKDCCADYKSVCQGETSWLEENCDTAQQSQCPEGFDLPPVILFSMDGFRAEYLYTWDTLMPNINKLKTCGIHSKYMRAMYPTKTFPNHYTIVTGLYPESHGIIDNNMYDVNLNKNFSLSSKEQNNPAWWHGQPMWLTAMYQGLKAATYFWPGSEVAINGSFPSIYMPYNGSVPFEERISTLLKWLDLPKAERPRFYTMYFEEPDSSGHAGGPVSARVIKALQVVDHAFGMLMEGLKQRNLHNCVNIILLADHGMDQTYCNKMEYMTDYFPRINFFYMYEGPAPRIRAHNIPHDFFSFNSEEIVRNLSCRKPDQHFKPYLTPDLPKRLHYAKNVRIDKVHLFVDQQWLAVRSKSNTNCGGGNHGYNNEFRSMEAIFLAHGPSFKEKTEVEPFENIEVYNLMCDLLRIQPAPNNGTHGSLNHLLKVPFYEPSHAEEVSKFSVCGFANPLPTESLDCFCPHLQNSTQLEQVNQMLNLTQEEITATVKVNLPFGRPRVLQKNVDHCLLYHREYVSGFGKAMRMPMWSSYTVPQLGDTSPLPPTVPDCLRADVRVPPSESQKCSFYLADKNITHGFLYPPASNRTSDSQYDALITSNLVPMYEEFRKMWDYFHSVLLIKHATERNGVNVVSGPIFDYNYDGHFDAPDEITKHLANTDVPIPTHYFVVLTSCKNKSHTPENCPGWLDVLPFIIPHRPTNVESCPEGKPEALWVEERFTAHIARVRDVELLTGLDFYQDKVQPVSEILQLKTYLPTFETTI

Compound in the first assay: CC(C)(C)Cn1c(N)nc2ccc(-c3[nH]c(C(C)(C)C)nc3-c3ccc(F)cc3)nc21 [ralimetinib]
Description: log2 fold change, soluble protein after heating vs DMSO (PISA); higher = thermal stabilisation; K562 cells, 10 uM, 30 min; active = over 0.2 and 3.5 SD of the protein, either way, in both replicates (recomputed). The method, boiled down:
(§1)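 Soluble protein was quantified by TMTpro 16plex LC-MS/MS after channel sums were equalised. It was obtained as the supernatant after 21,000xg for 90 min from pooled aliquots of K562 cells (2×10^6 cells/mL, 10 μM compound, 30 min) heated for 3 min across 48°C-58°C and extracted in PBS with 0.5% NP-40 at 4°C. Thermal stability values are relative to control samples and come from duplicates. They are given as log2 fold changes.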
Consider EIF3J (UniProt O75822), for which the log2 fold change is inactive: 0.093.

For the target ELOVL5 isoform 2 (UniProt Q9NYP7), the log2 fold change was inactive: -0.058.

As for EIF4ENIF1 isoform 3 (UniProt Q9NRA8), the log2 fold change was inactive: 0.014.

ELF1 (UniProt P32519): the log2 fold change is inactive: 0.186.

Compound in another assay: CC(C)(O)CC(=O)NCCn1ccc2ncnc(Nc3ccc(Oc4cccc(C(F)(F)F)c4)c(Cl)c3)c21
Described as above. The method, boiled down: as §1
As to EIF3J isoform 2 (UniProt O75822), the log2 fold change is inactive: -0.05.

Turning to EEF1AKNMT (UniProt Q8N6R0), the log2 fold change is inactive: -0.097.

EIF2AK1 (UniProt Q9BQI3): the log2 fold change was inactive: 0.056.

Regarding EIF2B4 (UniProt Q9UI10), the log2 fold change was inactive: -0.217.

For the target EIF3G (UniProt K7ER90), the log2 fold change is inactive: -0.041.

As for EED, A0A5F9ZI63, the log2 fold change was inactive: 0.053.

Take EIF1B (UniProt O60739): the log2 fold change was inactive: -0.057.

For EOGT (UniProt Q5NDL2), the log2 fold change was inactive: 0.016.

As for EIF2AK2 (UniProt P19525), the log2 fold change is inactive: 0.106.

Consider ELOVL1 (UniProt Q9BW60), for which the log2 fold change was inactive: -0.197.

Consider EIF2S3 (UniProt P41091), for which the log2 fold change is inactive: 0.05.

Regarding EGR1 (UniProt P18146), the log2 fold change is inactive: 0.044.

Consider ELL (UniProt P55199), for which the log2 fold change was inactive: -0.117.

Turning to EEF1G isoform 2 (UniProt P26641), the log2 fold change was inactive: 0.006.

Take ELAC1 (UniProt Q9H777): the log2 fold change was inactive: 0.027.

Consider EIF4E2 (UniProt O60573), for which the log2 fold change was inactive: -0.036.

For the target EFCAB14 (UniProt O75071), the log2 fold change is inactive: -0.009.

For the target EGLN1 (UniProt Q9GZT9), the log2 fold change is inactive: -0.01.

ENTPD6 (UniProt O75354): the log2 fold change is inactive: -0.184.

Regarding ELOVL7 (UniProt A1L3X0), the log2 fold change is inactive: -0.177.

Regarding EFL1 (UniProt Q7Z2Z2), the log2 fold change is inactive: -0.069.

Turning to EIF2AK3 (UniProt Q9NZJ5), the log2 fold change was inactive: -0.322.

As for ELMO1 (UniProt Q92556), the log2 fold change is inactive: -0.091.

As to ENPP3 (UniProt O14638), the log2 fold change is inactive: 0.092.

For the target EIF3J (UniProt O75822), the log2 fold change is inactive: -0.031.

In the case of ELOVL5 isoform 2 (UniProt Q9NYP7), the log2 fold change was inactive: -0.272.

For EIF4ENIF1 isoform 3 (UniProt Q9NRA8), the log2 fold change was inactive: -0.086.

In the case of ELF1 (UniProt P32519), the log2 fold change was active: -0.567.

Compound in another assay: CC(C)C1=C2N=C(C=C(N2N=C1)NCC3=CC=CC=C3)NCCCCCCN
The description is as above. The method, boiled down: as §1
For the target EIF4G3 isoform 3 (UniProt O43432), the log2 fold change is inactive: -0.079.

For EIF3J isoform 2 (UniProt O75822), the log2 fold change is inactive: 0.036.

With EEF1AKNMT (UniProt Q8N6R0), the log2 fold change is inactive: -0.199.

For EIF2AK1 (UniProt Q9BQI3), the log2 fold change is inactive: 0.023.

Turning to EIF2B4 (UniProt Q9UI10), the log2 fold change was inactive: -0.099.

With EIF3G (UniProt K7ER90), the log2 fold change was inactive: -0.099.

With EED, A0A5F9ZI63, the log2 fold change is inactive: 0.05.

Take EIF1B (UniProt O60739): the log2 fold change was inactive: 0.105.

For EOGT (UniProt Q5NDL2), the log2 fold change is inactive: -0.024.

In the case of EIF2AK2 (UniProt P19525), the log2 fold change is inactive: -0.339.

Consider ELOVL1 (UniProt Q9BW60), for which the log2 fold change was active: -0.628.

For the target EIF2S3 (UniProt P41091), the log2 fold change was inactive: 0.052.

On to EGR1 (UniProt P18146), for which the log2 fold change was inactive: -0.452.

ELL (UniProt P55199): the log2 fold change was inactive: -0.014.

As to EEF1G isoform 2 (UniProt P26641), the log2 fold change is inactive: -0.067.

As to ELAC1 (UniProt Q9H777), the log2 fold change is inactive: 0.116.

On to EIF4E2 (UniProt O60573), for which the log2 fold change was inactive: -0.109.

On to EFCAB14 (UniProt O75071), for which the log2 fold change was inactive: -0.127.

In the case of EGLN1 (UniProt Q9GZT9), the log2 fold change was inactive: -0.083.

In the case of ENTPD6 (UniProt O75354), the log2 fold change was inactive: -0.065.

As for EFEMP1 (UniProt Q12805), the log2 fold change is inactive: 0.048.

For ELOVL7 (UniProt A1L3X0), the log2 fold change is active: -0.617.

For EFL1 (UniProt Q7Z2Z2), the log2 fold change is inactive: -0.103.

With EFCAB2 (UniProt Q5VUJ9), the log2 fold change is inactive: -0.115.

Take EPB41, A0A2R8Y6D0: the log2 fold change is inactive: 0.112.

With EIF2AK3 (UniProt Q9NZJ5), the log2 fold change was inactive: 0.011.

For the target EML5 isoform 5 (UniProt Q05BV3), the log2 fold change was inactive: -0.041.

In the case of ELMO1 (UniProt Q92556), the log2 fold change was inactive: -0.094.

Take ENPP3 (UniProt O14638): the log2 fold change was inactive: -0.074.

Regarding EIF3J (UniProt O75822), the log2 fold change is inactive: -0.007.

ELOVL5 isoform 2 (UniProt Q9NYP7): the log2 fold change is inactive: -0.348.

In the case of EIF4H isoform 2 (UniProt Q15056), the log2 fold change is inactive: 0.068.

In the case of EIF4ENIF1 isoform 3 (UniProt Q9NRA8), the log2 fold change was inactive: -0.075.

With ELF1 (UniProt P32519), the log2 fold change was inactive: -0.072.

Compound in the next assay: CC(C)C[C@@H](C=O)NC(=O)[C@H](CC(C)C)NC(=O)[C@H](CC(C)C)NC(=O)OCc1ccccc1
The description is as above. The method, boiled down: as §1
On to EIF4G3 isoform 3 (UniProt O43432), for which the log2 fold change is inactive: 0.017.

EEF1AKNMT (UniProt Q8N6R0): the log2 fold change was inactive: 0.127.

EIF2AK1 (UniProt Q9BQI3): the log2 fold change was active: 0.279.

Regarding EED, A0A5F9ZI63, the log2 fold change is inactive: 0.03.

EIF1B (UniProt O60739): the log2 fold change is inactive: -0.275.

With EOGT (UniProt Q5NDL2), the log2 fold change was inactive: 0.026.

For the target EIF2AK2 (UniProt P19525), the log2 fold change is inactive: 0.149.

For the target ELOVL1 (UniProt Q9BW60), the log2 fold change was inactive: 0.036.

In the case of EIF2S3 (UniProt P41091), the log2 fold change is inactive: 0.075.

Turning to EGR1 (UniProt P18146), the log2 fold change is inactive: 0.153.

Take ELL (UniProt P55199): the log2 fold change was inactive: 0.106.

Take EEF1G isoform 2 (UniProt P26641): the log2 fold change was inactive: -0.024.

As to EIF4E2 (UniProt O60573), the log2 fold change is inactive: 0.118.

With EFCAB14 (UniProt O75071), the log2 fold change was inactive: -0.063.

For the target EGLN1 (UniProt Q9GZT9), the log2 fold change was inactive: 0.018.

Consider ENTPD6 (UniProt O75354), for which the log2 fold change was inactive: 0.034.

As for EFEMP1 (UniProt Q12805), the log2 fold change was inactive: 0.05.

Consider EFL1 (UniProt Q7Z2Z2), for which the log2 fold change is inactive: 0.03.

Turning to EFCAB2 (UniProt Q5VUJ9), the log2 fold change was inactive: 0.119.

As to EPB41, A0A2R8Y6D0, the log2 fold change is inactive: 0.03.

Turning to EML5 isoform 5 (UniProt Q05BV3), the log2 fold change was inactive: 0.023.

As for ELMO1 (UniProt Q92556), the log2 fold change is active: 0.761.

As for ENPP3 (UniProt O14638), the log2 fold change was inactive: 0.123.

Regarding EIF3J (UniProt O75822), the log2 fold change was inactive: -0.079.

With ELOVL5 isoform 2 (UniProt Q9NYP7), the log2 fold change was inactive: -0.05.

As to EIF4ENIF1 isoform 3 (UniProt Q9NRA8), the log2 fold change was inactive: -0.048.

Take ELF1 (UniProt P32519): the log2 fold change was inactive: -0.076.
